The record followed here is paper PMC6406557.

Construct, isoform or probe ends are uncertain for at least one entry. A weaker result is weaker than the reference pair of the same experiment.

For this data set, the target named is lysozyme (UniProt P00698). Kind of data set: pull-down on aptamer-functionalized magnetic nanoparticles (adsorption). The conditions noted are these: 1 M NaCl, 5'-aldehyde, coupled as imine to NH2-Fe3O4 nanoparticles, Adsorption optimum: 4.0 mg/mL lysozyme, 60 min, pH 9.0, 37 C, 0 M NaCl, egg white: mixed 1:1 with 20 mM PBS pH 7.2-8.0, 10 mg NPs per mL, commercial protein, single-stranded DNA.

Consider “TTTTTTATCAGGGCTAAAGAGTGC [lysozyme aptamer]”, for which the binding result is reported as “binds more weakly”.
